The list shows a part of the results.

The test system of this assay is T1, CTL2-GFP (C. trachomatis L2/434/Bu, GFP-expressing).
T1 construct: L2/434/Bu, GFP-expressing
Details: species or system HeLa; Intracellular C. trachomatis growth in HeLa cells, bulk GFP fluorescence relative to DMSO. To be noted: bulk GFP, single well; 28.5 h, 10 µM; inhibitor.
Take `COc1ccc([C@@]23CC[C@@H](NC(=O)c4ccc(C(F)(F)F)cc4F)C[C@@H]2N(C)CC3)cc1OC` [CBK073976T]: the “% of control remaining” value was 106.098%.
Consider `O=C(c1ccc2c(c1)OCO2)N1CCN(C/C=C/c2ccccc2)CC1` [CBK262639], for which the “% of control remaining” value is reported as 100%.
`O=S(=O)(c1cc(Cl)ccc1Cl)N1CCCN(Cc2ccccc2)CC1` [CBK044491]: the “% of control remaining” value is reported as 118.931%.
On to `COc1ccc(-c2nnc(SCC(=O)NN)n2-c2ccccc2)cc1OC` [CBK262264], for which the “% of control remaining” value came to 85.7603%.
Regarding `COc1ccc2c(c1)C(=O)NC1(CC2)CCN(Cc2ccccc2)C1` (stereo not drawn) [CBK283343], the “% of control remaining” value amounted to 136.782%.
As for `O=C(Cn1ccc(=O)[nH]c1=O)NCc1cccnc1-n1cccn1` [CBK305705], the figure is 127.441%.
As for `COc1cc(NC(=O)Cn2nc([N+](=O)[O-])c(Cl)c2C)c(OC)cc1Cl` [CBK033535], the figure is 100.784%; as for `Cc1c(Br)c(C(F)(F)F)nn1CC(=O)N1CCCC1` [CBK071473], 141.892%.
As for `O=C(O)CCCC(=O)NNC(=O)c1cccc(Br)c1` [CBK263530], the figure is 123.241%.
For the molecule `O=C(c1ccco1)N1CCN(c2cncc(-c3cc4ccccc4o3)n2)CC1` [CBK066044], the “% of control remaining” value came to 86.3244%.
With `Cc1nc(CN2C(=O)CC3(C2=O)C(=O)N(CCCCOc2ccccc2)c2ccccc23)cs1` (stereo not drawn) [CBK076103], the “% of control remaining” value is 140.239%.
As for `c1ccc(Oc2cccc(CN3CCN(c4ccccn4)CC3)c2)cc1` [CBK261523], the figure is 115.02%.
Consider `CCOc1cc(/C=C/c2ccc3cccc(O)c3n2)cc(Br)c1O` [CBK264451], for which the “% of control remaining” value is given as 100%.
As for `Nc1nc(N)c([C@H]2C[C@@H](O)[C@@H](CO)O2)nc1Cl` [CBK201326], the “% of control remaining” value stood at 149.416%.
For `CCN(CC)C(=O)c1ccc(NC(=O)CSc2n[nH]c(=O)n2CC2CCCO2)cc1` (stereo not drawn) [CBK295186], the “% of control remaining” value was determined as 198.104%.
Turning to `Cc1nn(C)c(Cl)c1CN1CCCC(CCC(=O)N2CCN(C)CC2)C1` (stereo not drawn) [CBK307716], the “% of control remaining” value is given as 109.15%.
As to `CN1CCN(c2cc(NCC(c3cccnc3)N(C)C)nc3ccnn23)CC1` (stereo not drawn) [CBK037157], the “% of control remaining” value was determined as 82.0644%.
As for `Cn1cc(CN2CCCC(c3cccc(Cc4ccc(Cl)cc4)n3)C2)cn1` (stereo not drawn) [CBK286242], the figure is 105.267%.
For the molecule `C#CCNS(=O)(=O)c1cccc(C(=O)NC2CCOc3ccccc32)c1` (stereo not drawn) [CBK305430], the “% of control remaining” value was 99.6839%.
As for `Cc1cc(C(=O)CSc2nnc(-c3ccccc3F)n2CC(C)C)c(C)[nH]1` [CBK297877], the figure is 154.605%.
As for `CC(=O)Nc1ccc(-c2ccc(COC3CCN(C(=O)Cc4ccc(Cl)cc4)CC3)cc2)cc1` [CBK149218], the figure is 104.385%.

(Values after PMC12040169 (PLOS Biology, 2025).)
